One test has as its target human CDK4/cyclin D3 (Homo sapiens, UniProt P11802). The experiment in a line: Inhibition of CDK4/cyclin D retinoblastoma kinase activity (Ki; % inhibition). As to conditions: read-out: CDK4 Ki; apparent Ki, CDK4/cyclin D3, Rb substrate.
Another test deals with HCT-116 cell line. The experiment in a line: Inhibition of cell growth, MTT tetrazolium salt assay. The following applies: read-out: HCT-116 IC50, three to five days. On the procedure:
Inhibition of cell growth was measured using the tetrazolium salt assay, which is based on the ability of viable cells to reduce 3-(4,5-dimethylthiazol-2-yl)-2,5-[2H]-diphenyltetrazolium bromide (MTT) to formazan (Mossman, Journal of Immunological Methods, 65, (1983), pp. 55-58). The water-insoluble purple formazan product was then detected spectrophotometrically. The HCT-116 cell line was used as a representative cancer cell line and grown in 96-well plates. Cells were plated in McCoy's 5A Medium at a volume of 135 μl/well. Plates were incubated for four hours before addition of inhibitor compounds. Different concentrations of inhibitor compounds were added in 0.5% (v/v) dimethylsulfoxide (15 μL/well), and cells were incubated at 37° C. (5% CO2) for three to five days. At the end of the incubation, MTT was added to a final concentration of 0.2 mg/mL, and cells were incubated for 4 hours more at 37° C. After centrifugation of the plates and removal of medium, the absorbance of the formazan (solubilized in dimethylsulfoxide) was measured at 540 nm. The concentration of inhibitor compound causing 50% (IC50) or 90% ([…]) inhibition of growth was determined from the linear portion of a semi-log plot of inhibitor concentration versus percent inhibition. All results were compared to control cells treated only with 0.5% (v/v) dimethylsulfoxide.

Protein sequences, listed by entry. Tags and fused reporters are not part of them. Residues count along the entry.
UniProt P11802, whole entry: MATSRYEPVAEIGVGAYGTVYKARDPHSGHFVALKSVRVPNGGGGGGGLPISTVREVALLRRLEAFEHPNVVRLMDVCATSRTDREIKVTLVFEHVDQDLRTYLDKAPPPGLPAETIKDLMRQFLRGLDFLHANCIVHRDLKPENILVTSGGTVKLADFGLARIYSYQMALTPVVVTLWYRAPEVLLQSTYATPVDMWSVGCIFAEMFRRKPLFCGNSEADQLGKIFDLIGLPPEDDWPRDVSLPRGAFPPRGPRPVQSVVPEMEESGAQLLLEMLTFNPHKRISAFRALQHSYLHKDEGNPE
UniProt P30281, 1-264 partner limits assumed: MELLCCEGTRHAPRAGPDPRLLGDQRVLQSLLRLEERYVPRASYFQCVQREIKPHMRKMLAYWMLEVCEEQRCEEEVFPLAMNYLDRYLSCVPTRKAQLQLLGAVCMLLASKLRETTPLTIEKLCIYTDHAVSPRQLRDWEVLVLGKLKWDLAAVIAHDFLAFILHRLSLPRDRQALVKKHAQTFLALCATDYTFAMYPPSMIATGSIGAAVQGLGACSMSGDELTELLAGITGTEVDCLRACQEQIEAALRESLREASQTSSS

The structures given here were assigned with low confidence; some may be wrong.

Our source for the Ki and IC50 values is patent publication US6720346B2, “Thiazole benzamide derivatives and pharmaceutical compositions for inhibiting cell proliferation” (Agouron Pharmaceuticals, Inc., priority 2001, dated 2004).

In general, IC50 refers to the concentration at which inhibition is half-maximal.

Turning to `C[C@H](CN(C)C)N(C)C(=O)c1ccc(Nc2nc(N)c(C(=O)c3c(F)cccc3F)s2)cc1`, at human CDK4/cyclin D3, the Ki is 53 nM. The IC50 in the test with HCT-116 cell line is 300 nM.
